Test results from paper PMC2923601.
Results are given in words; binding and its absence hold for the method and conditions named. For part of these data: Binding seen in cells or lysates may run through a third protein. Some entries that bind do so weakly or less than the wild type. Each block holds one molecule with its values, some of them ahead of it.

Columns and labels:
[1] = biological target: T1, DNA polymerase lambda (endogenous, mouse fibroblast extract) (mouse (endogenous in mouse fibroblasts)) (UniProt Q9QXE2); experiment: co-IP; 1 mg mouse fibroblast cell extract with 0.7 mg antibody or non-immune IgG, 4 h at 4°C; TrueBlot anti-rabbit IgG IP beads overnight; lysis buffer 50 mM Tris-HCl pH 7.5, 150 mM NaCl, 0.2% Triton X-100, 0.3% Nonidet P-40; immunoblot; knockout cell extracts as controls
T1 sequence: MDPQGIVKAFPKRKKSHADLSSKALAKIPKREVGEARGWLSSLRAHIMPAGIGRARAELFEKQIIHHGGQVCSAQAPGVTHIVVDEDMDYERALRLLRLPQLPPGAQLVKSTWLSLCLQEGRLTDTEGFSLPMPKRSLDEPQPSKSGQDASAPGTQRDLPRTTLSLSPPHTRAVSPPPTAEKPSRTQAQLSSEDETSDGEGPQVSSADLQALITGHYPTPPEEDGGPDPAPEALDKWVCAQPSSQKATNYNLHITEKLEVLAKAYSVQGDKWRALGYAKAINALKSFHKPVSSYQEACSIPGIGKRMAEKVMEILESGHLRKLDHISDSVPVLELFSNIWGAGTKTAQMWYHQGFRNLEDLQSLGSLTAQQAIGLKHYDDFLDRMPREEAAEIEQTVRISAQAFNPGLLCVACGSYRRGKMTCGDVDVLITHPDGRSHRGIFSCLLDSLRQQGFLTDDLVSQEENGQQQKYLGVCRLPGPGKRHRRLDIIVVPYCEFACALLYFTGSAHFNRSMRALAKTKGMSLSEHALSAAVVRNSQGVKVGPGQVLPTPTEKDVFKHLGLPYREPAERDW

[2] = biological target: T2, full-length human DNA polymerase lambda (human) (UniProt Q9UGP5); experiment: co-IP; 1.5 µM equimolar mixture of purified DNA polymerase and DNA glycosylase with antibody to one of them, 50 µl, 4 h at 4°C; binding buffer 25 mM Tris-HCl pH 8, 10% glycerol, 100 mM NaCl, 0.01% Nonidet P-40; protein A/G or anti-rabbit IgG beads; immunoblot; both purified
T2 sequence: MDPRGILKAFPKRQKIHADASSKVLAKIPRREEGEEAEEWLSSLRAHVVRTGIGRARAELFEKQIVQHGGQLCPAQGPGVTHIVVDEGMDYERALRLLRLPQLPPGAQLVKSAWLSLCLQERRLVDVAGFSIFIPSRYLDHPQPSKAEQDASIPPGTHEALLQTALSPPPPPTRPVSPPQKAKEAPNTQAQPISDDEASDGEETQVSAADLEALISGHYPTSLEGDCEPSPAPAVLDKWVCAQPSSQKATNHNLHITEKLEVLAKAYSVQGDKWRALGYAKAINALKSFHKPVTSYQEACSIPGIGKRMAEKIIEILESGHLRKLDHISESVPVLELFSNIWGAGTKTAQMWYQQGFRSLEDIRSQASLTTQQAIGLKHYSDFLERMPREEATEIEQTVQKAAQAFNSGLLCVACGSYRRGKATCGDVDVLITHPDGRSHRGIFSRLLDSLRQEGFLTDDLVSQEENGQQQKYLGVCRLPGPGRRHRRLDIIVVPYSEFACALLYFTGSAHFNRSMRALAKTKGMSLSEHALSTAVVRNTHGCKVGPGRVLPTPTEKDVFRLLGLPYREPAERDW

[3] = biological target: 8-oxoguanine-DNA glycosylase 1 (OGG1) (endogenous, mouse fibroblast extract) (mouse (endogenous in mouse fibroblasts)) (UniProt O08760); experiment: co-IP; 1 mg mouse fibroblast cell extract with 0.7 mg antibody or non-immune IgG, 4 h at 4°C; TrueBlot anti-rabbit IgG IP beads overnight; lysis buffer 50 mM Tris-HCl pH 7.5, 150 mM NaCl, 0.2% Triton X-100, 0.3% Nonidet P-40; immunoblot; knockout cell extracts as controls

binding [1]: binds
Molecule: 8-oxoguanine-DNA glycosylase 1 (OGG1) (endogenous, mouse fibroblast extract) (from UniProt O08760 1-345) (enzyme)

binding [2]: binds
Molecule: human alkyladenine-DNA glycosylase (AAG) (from UniProt P29372 18-298) (enzyme)

binding [3]: binds
B1: DNA polymerase lambda (endogenous, mouse fibroblast extract) (enzyme, UniProt Q9QXE2 1-573)
chain: MDPQGIVKAFPKRKKSHADLSSKALAKIPKREVGEARGWLSSLRAHIMPAGIGRARAELFEKQIIHHGGQVCSAQAPGVTHIVVDEDMDYERALRLLRLPQLPPGAQLVKSTWLSLCLQEGRLTDTEGFSLPMPKRSLDEPQPSKSGQDASAPGTQRDLPRTTLSLSPPHTRAVSPPPTAEKPSRTQAQLSSEDETSDGEGPQVSSADLQALITGHYPTPPEEDGGPDPAPEALDKWVCAQPSSQKATNYNLHITEKLEVLAKAYSVQGDKWRALGYAKAINALKSFHKPVSSYQEACSIPGIGKRMAEKVMEILESGHLRKLDHISDSVPVLELFSNIWGAGTKTAQMWYHQGFRNLEDLQSLGSLTAQQAIGLKHYDDFLDRMPREEAAEIEQTVRISAQAFNPGLLCVACGSYRRGKMTCGDVDVLITHPDGRSHRGIFSCLLDSLRQQGFLTDDLVSQEENGQQQKYLGVCRLPGPGKRHRRLDIIVVPYCEFACALLYFTGSAHFNRSMRALAKTKGMSLSEHALSAAVVRNSQGVKVGPGQVLPTPTEKDVFKHLGLPYREPAERDW
